Data as given in PubChem BioAssay AID504744 (Drosophila RNAi Screening Center, 2011).

Aim: 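Find genes whose loss alters insulin-driven dAkt phosphorylation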 (primary screen)
Cells: Drosophila Kc167 cells
Reagents: long dsRNA against Drosophila genes, 250 ng dsRNA per well of a 384-well plate
Time to read-out: 3 days of knock-down, then overnight serum-free starvation before stimulation
Challenge: bovine insulin at 387 nM for 10 minutes after 12 h without serum
Measured: 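Per-well phospho-dAkt level from an in-cell fluorescent antibody stain, divided by a DNA-dye signal; log2 residuals turned into z-scores that take cell number into account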
Hit rule: 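Under insulin, a gene counts as a hit if the average z-score of two replicates lies above 2.5 or below -2.5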
The screen tested about 23,000 reagents; below is an unselected part of those with a known target gene and a result. Over the whole deposit, 98 (0.43%) got an active call. 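Only hit calls are given; the phospho-dAkt signals, z-scores and hit direction were not deposited.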 Names joined by + are all predicted targets of the reagent.

target gene | amplicon | Outcome
CG2875 | DRSC18231 | inactive
Dh44 (Diuretic hormone 44) | DRSC12747 | inactive
Dh44 (Diuretic hormone 44) | DRSC16409 | inactive
Atx-1 (Ataxin 1) | DRSC18365 | inactive
Spn88Eb (Serpin 88Eb) | DRSC16093 | inactive
CG34460 | DRSC06974 | inactive
CG13005 | DRSC19524 | inactive
CG2680 | DRSC18466 | inactive
Usp14 (Ubiquitin specific protease 14) | DRSC02853 | inactive
CG2059 | DRSC18203 | inactive
Cdk4 (Cyclin-dependent kinase 4) | DRSC07358 | inactive
Mp (Multiplexin) | DRSC10193 | inactive
Mp (Multiplexin) | DRSC11029 | inactive
Mp (Multiplexin) | DRSC11030 | inactive
CG18628 | DRSC10328 | inactive
Pink1 (PTEN-induced putative kinase 1) | DRSC18361 | active
ERp44 (Endoplasmic reticulum protein 44) | DRSC20215 | inactive
CG14286 | DRSC14767 | inactive
CR31541 (retired record) | DRSC21876 | inactive
ms(2)35Ci (male sterile (2) 35Ci) | DRSC01460 | inactive
HDAC6 (Histone deacetylase 6) | DRSC20252 | inactive
CG32225 | DRSC09657 | inactive
CG5886 | DRSC15908 | inactive
CG34054 | DRSC05277 | inactive
Spred (Sprouty-related protein with EVH-1 domain) | DRSC05976 | inactive
Ssrp (Structure specific recognition protein) | DRSC04658 | inactive
CG12817 | DRSC14555 | inactive
CG33461 | DRSC22892 | inactive
bru1 (bruno 1) | DRSC01234 | inactive
bru1 (bruno 1) | DRSC01236 | inactive
bru1 (bruno 1) | DRSC01237 | inactive
bru1 (bruno 1) | DRSC01238 | inactive
bru1 (bruno 1) | DRSC03485 | inactive
CG16995 | DRSC00480 | inactive
CG9016 | DRSC03127 | inactive
Gfrl (Glial cell line-derived neurotrophic family receptor-like) | DRSC15197 | inactive
Gfrl (Glial cell line-derived neurotrophic family receptor-like) | DRSC15199 | inactive
Gfrl (Glial cell line-derived neurotrophic family receptor-like) | DRSC15565 | inactive
Gfrl (Glial cell line-derived neurotrophic family receptor-like) | DRSC15719 | inactive
CG17050 (retired record) | DRSC06651 | inactive
l(2)37Cd (lethal (2) 37Cd) | DRSC02069 | inactive
CG5805 | DRSC15878 | inactive
Cpr67Fb (Cuticular protein 67Fb) | DRSC10314 | inactive
ND-B22 (NADH dehydrogenase (ubiquinone) B22 subunit) | DRSC03193 | inactive
Sod1 (Superoxide dismutase 1) | DRSC11286 | inactive
Aldh-III (Aldehyde dehydrogenase type III) | DRSC06047 | inactive
CG4502 | DRSC02755 | inactive
CG11069 | DRSC14289 | inactive
CG40198 | DRSC21068 | inactive
angel | DRSC04670 | inactive
angel | DRSC21326 | inactive
CR18217 (pseudo) | DRSC21506 | inactive
FucTB (alpha1,3-fucosyltransferase B) | DRSC02745 | inactive
Rcd7 (Reduction in Cnn dots 7) | DRSC10100 | inactive
CG9014 | DRSC01979 | inactive
nac (neuronally altered carbohydrate) | DRSC16520 | inactive
CG7102 | DRSC02647 | inactive
CG7102 | DRSC03007 | inactive
Mid1 | DRSC04230 | inactive
Mid1 | DRSC04231 | inactive
Mid1 | DRSC04308 | inactive
Mid1 | DRSC22773 | inactive
Mid1 | DRSC22803 | inactive
eag (ether a go-go) | DRSC19067 | inactive
eag (ether a go-go) | DRSC20328 | inactive
Bhmt (Betaine-homocysteine S-methyltransferase) | DRSC02079 | inactive
Edg78E (Ecdysone-dependent gene 78E) | DRSC11863 | inactive
Cpr56F (Cuticular protein 56F) | DRSC07326 | inactive
Mlc-c (Myosin light chain cytoplasmic) | DRSC18683 | inactive
CG10663 | DRSC09770 | inactive
Phb2 (Prohibitin 2) | DRSC06512 | inactive
Cog8 (Component of oligomeric golgi complex 8) | DRSC02961 | inactive
CG14565 | DRSC11726 | inactive
CG18518 | DRSC01509 | inactive
CG32793 | DRSC18145 | inactive
CG32793 | DRSC18194 | inactive
S-Lap3 (Sperm-Leucylaminopeptidase 3) | DRSC10956 | inactive
cup | DRSC03516 | inactive
CG17681 | DRSC02632 | inactive
Ten-a (Tenascin accessory) | DRSC18924 | inactive
Ten-a (Tenascin accessory) | DRSC19496 | inactive
Ten-a (Tenascin accessory) | DRSC19700 | inactive
Ten-a (Tenascin accessory) | DRSC19793 | inactive
Ten-a (Tenascin accessory) | DRSC19864 | inactive
Ten-a (Tenascin accessory) | DRSC19865 | inactive
Ten-a (Tenascin accessory) | DRSC20290 | inactive
Ten-a (Tenascin accessory) | DRSC21461 | inactive
Vti1b (Vesicle transport through interaction with t-SNAREs 1b) | DRSC16283 | inactive
Vti1b (Vesicle transport through interaction with t-SNAREs 1b) | DRSC16284 | inactive
CG17985 | DRSC06702 | inactive
CG14545 | DRSC14889 | inactive
fj (four-jointed) | DRSC07619 | inactive
CG6163 | DRSC10595 | inactive
CG13689 | DRSC00358 | inactive
CG42821 + CG42822 | DRSC13231 | inactive
CG42821 + CG42822 | DRSC13232 | inactive
TrpRS-m (Tryptophanyl-tRNA synthetase, mitochondrial) | DRSC10848 | inactive
CG6290 | DRSC19979 | inactive
kairos | DRSC19972 | inactive
CG8490 | DRSC07194 | inactive
CG6216 | DRSC10606 | inactive
CG12692 | DRSC17881 | inactive
CG4968 | DRSC02794 | inactive
CG42399 | DRSC00322 | inactive
CG42399 | DRSC00661 | inactive
CG8087 | DRSC16375 | inactive
CG12641 (retired record) | DRSC17848 | inactive
CG6495 | DRSC01993 | inactive
Aven (Apoptosis and caspase activation inhibitor) | DRSC19693 | inactive
CG9500 | DRSC03237 | inactive
Cpr65Ax2 + Cpr65Ax1 | DRSC10341 | inactive
Cpr65Ax2 + Cpr65Ax1 | DRSC10344 | inactive
Pal1 (Peptidyl-alpha-hydroxyglycine-alpha-amidating lyase 1) | DRSC06106 | inactive
aurB (aurora B) | DRSC03548 | inactive
CG3862 | DRSC00631 | inactive
5PtaseI (Inositol polyphosphate-5-phosphatase type I) | DRSC16269 | inactive
5PtaseI (Inositol polyphosphate-5-phosphatase type I) | DRSC22090 | inactive
CG9616 | DRSC16518 | inactive
Mkp3 (Mitogen-activated protein kinase phosphatase 3) | DRSC10084 | inactive
Mkp3 (Mitogen-activated protein kinase phosphatase 3) | DRSC10085 | inactive
Mitofilin | DRSC16742 | inactive
CTCF | DRSC11004 | inactive
dos | DRSC07992 | inactive
dos | DRSC08713 | inactive
Dic3 | DRSC06058 | inactive
Fmo-2 (Flavin-containing monooxygenase 2) | DRSC04983 | inactive
frtz (fritz) | DRSC00512 | inactive
Ocho | DRSC11239 | inactive
CG15580 | DRSC12266 | inactive
Plp (Pericentrin-like protein) | DRSC10006 | inactive
Plp (Pericentrin-like protein) | DRSC10333 | inactive
Plp (Pericentrin-like protein) | DRSC10700 | inactive
CG1638 | DRSC15132 | inactive
CG42394 + CG6567 | DRSC12821 | inactive
dpr10 (defective proboscis extension response 10) | DRSC09015 | inactive
dpr10 (defective proboscis extension response 10) | DRSC09018 | inactive
dpr10 (defective proboscis extension response 10) | DRSC10159 | inactive
dpr10 (defective proboscis extension response 10) | DRSC10160 | inactive
Mo25 | DRSC11224 | inactive
mask (multiple ankyrin repeats single KH domain) | DRSC15370 | inactive
mask (multiple ankyrin repeats single KH domain) | DRSC16005 | inactive
mask (multiple ankyrin repeats single KH domain) | DRSC16018 | inactive
Naprt (Nicotinate phosphoribosyltransferase) | DRSC00630 | inactive
hoip (hoi-polloi) | DRSC03546 | inactive
Gycalpha99B (Guanylyl cyclase alpha-subunit at 99B) | DRSC16690 | inactive
CG8036 | DRSC16366 | inactive
tous (testes of unusual size) | DRSC04464 | inactive
PolI (DNA polymerase iota) | DRSC16267 | inactive
CG13063 | DRSC09946 | inactive
GstD6 (Glutathione S transferase D6) | DRSC16687 | inactive
Phae1 (Phaedra 1) | DRSC02554 | inactive
Smg6 | DRSC16029 | inactive
CG1387 | DRSC17904 | inactive
D12 | DRSC03311 | inactive
Ugt36F1 (UDP-glycosyltransferase family 36 member F1) | DRSC02601 | inactive
CG5770 | DRSC06954 | inactive
CG1737 | DRSC19771 | inactive
